Measured values published in publication PMC12858993.
These are yes or no findings as the source states them, for the method shown. In cells and extracts the contact can be indirect. Some results given as binding are weak or reduced against the parent protein; the word gives no strength. Tags and fused reporters may be left off the sequences shown.

Molecular target: T1, Flag-Fbxo2 (UniProt Q9UK22)
T1 sequence: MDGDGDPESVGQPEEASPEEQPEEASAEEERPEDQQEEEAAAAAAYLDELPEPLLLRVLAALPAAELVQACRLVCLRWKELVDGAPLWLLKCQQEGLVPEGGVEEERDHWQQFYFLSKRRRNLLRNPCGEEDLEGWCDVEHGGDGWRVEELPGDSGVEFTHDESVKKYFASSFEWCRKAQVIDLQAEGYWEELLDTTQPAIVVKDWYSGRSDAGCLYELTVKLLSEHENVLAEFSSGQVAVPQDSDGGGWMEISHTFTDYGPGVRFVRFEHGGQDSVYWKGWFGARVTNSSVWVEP
Assay: co-IP; HEK293T cells transfected with the indicated plasmids (YTHDF2 deletion mutants), 10 uM MG132 for 12 h; IP and Western blot

- binding: binds
B1: YTHDF2 N-terminal domain (amino acids 1-384) (domain or fragment, UniProt Q9Y5A9 1-384)
chain: MSASSLLEQRPKGQGNKVQNGSVHQKDGLNDDDFEPYLSPQARPNNAYTAMSDSYLPSYYSPSIGFSYSLGEAAWSTGGDTAMPYLTSYGQLSNGEPHFLPDAMFGQPGALGSTPFLGQHGFNFFPSGIDFSAWGNNSSQGQSTQSSGYSSNYAYAPSSLGGAMIDGQSAFANETLNKAPGMNTIDQGMAALKLGSTEVASNVPKVVGSAVGSGSITSNIVASNSLPPATIAPPKPASWADIASKPAKQQPKLKTKNGIAGSSLPPPPIKHNMDIGTWDNKGPVAKAPSQALVQNIGQPTQGSPQPVGQQANNSPPVAQASVGQQTQPLPPPPPQPAQLSVQQQAAQPTRWVAPRNRGSGFGHNGVDGNGVGQSQAGSGSTPSE
